Source: patent publication US20130164351A1 (priority 2010, published 2013)
Some of these results come from one statement about several compounds together.

System: MRSA strains from cystic fibrosis patients
Test: CLSI microdilution MICs against 40 MRSA strains
Format: cell-based, Staphylococcus aureus
Set-up: unit not given beside the values
Conditions: all MRSA strains tested
Experimental: Strains. Two strains each of mucoid Pseudomonas aeruginosa (both pyocyanin positive) and 40 MRSA (only one strain with gold colonies), isolated within the past 12 months and beyond from patients at in cystic fibrosis clinic, were tested. Additionally, two B. cepacia strains were acquired from Hershey Medical Center. All strains were identified by standard methods. Only one strain per patient was tested. MLVA was done on all strains, to examine clonality and to ensure that testing was not being limited to only one or a few clones. Strains were stored in skim milk at −70° C. until use.
Susceptibility testing. Original MICs of each strain to CEM-102 and other comparators was tested by CLSI microdilution methodology. Trays were obtained from Trek, Inc., Cleveland, Ohio. Time-kill macrobroth MIC dilution by CLSI was performed for all synergy testing.
MICs were assayed by standard methodology.

Substance: Teicoplanin
- MICs (range): 0.25-1
